Test results taken from publication PMC12576456.
The exact form of at least one protein or probe is not confirmed. Negatives hold for the conditions tested. At least one verdict was read from the data and is not stated in words by the source. Tags and fusion partners may be left off the protein sequences shown.

How the values were obtained:
[1] = molecular target: T1, SlTFT1 (14-3-3 protein) (Solanum lycopersicum (M82 cDNA)) (UniProt P93206); assay: EMSA; details: EMSA: binding buffer (composition not given), 30 min at 25 C; 6% native polyacrylamide gel at 4 C; FAM detection; protein translated in vitro; residues 1-249; protein details: 6xHis; label: FAM
T1 sequence (looked up): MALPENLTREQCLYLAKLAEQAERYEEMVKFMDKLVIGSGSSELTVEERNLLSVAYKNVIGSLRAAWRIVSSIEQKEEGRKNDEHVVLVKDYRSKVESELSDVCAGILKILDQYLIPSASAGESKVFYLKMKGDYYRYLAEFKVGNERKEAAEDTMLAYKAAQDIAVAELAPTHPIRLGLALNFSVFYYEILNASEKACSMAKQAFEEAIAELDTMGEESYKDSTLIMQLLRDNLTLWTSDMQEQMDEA

[2] = molecular target: T2, YFT1-C (EIN2-like protein, C-terminal part) (Solanum lycopersicum) (UniProt A0A3Q7HW43); assay: EMSA; details: EMSA: binding buffer (composition not given), 30 min at 25 C; 6% native polyacrylamide gel at 4 C; FAM detection; protein translated in vitro; protein details: 6xHis; label: FAM
T2 sequence (looked up, limits assumed): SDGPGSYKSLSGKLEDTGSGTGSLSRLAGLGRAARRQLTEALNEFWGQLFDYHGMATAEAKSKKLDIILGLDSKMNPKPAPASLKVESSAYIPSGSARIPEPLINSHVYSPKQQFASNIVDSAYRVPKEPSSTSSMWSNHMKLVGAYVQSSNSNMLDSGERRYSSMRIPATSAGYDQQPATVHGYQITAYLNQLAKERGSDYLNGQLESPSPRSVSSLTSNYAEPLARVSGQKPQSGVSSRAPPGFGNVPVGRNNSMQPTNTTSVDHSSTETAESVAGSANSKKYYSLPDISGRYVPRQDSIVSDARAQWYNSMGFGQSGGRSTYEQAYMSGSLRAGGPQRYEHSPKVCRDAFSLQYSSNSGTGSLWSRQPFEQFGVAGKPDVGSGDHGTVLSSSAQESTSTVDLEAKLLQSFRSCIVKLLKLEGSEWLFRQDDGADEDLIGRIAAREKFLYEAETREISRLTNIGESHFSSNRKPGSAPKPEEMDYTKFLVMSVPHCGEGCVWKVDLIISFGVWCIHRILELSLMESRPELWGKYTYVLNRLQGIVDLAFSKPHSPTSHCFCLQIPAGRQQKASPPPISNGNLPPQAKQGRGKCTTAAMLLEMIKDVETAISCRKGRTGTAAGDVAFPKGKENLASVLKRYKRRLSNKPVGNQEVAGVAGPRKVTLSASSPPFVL

Sequence	binding result [1]	binding result [2]
CCATCTCTCTAGGATATGTATTATGTACAGGTTCCTCTCTTT (double strand) [pYFT1-probe1]	no binding	
CTTTTAACTGGAATTAACATGTATATAGTTTTAGTTTGGATA (double strand) [pYFT1-probe2]	no binding	
GTTAGAATATCAGCTATAAATGTAGTCGAATTCAATAATTTT (double strand) [pSlTFT1-probe1]		no binding
TAATTCAACAAAATAAATGATGTATTTTTTTTTTATATATTC (double strand) [pSlTFT1-probe2]		no binding
